Paper PMC11169566
No constants are given. Whether binding was seen depends on the method and setting. Binding seen in cells or lysates may run through a third protein. Some binding calls cover weakened binding; strength is not graded here.

Sequences of proteins named here, by UniProt entry; tags and fusion partners are left off.
UniProt Q99942: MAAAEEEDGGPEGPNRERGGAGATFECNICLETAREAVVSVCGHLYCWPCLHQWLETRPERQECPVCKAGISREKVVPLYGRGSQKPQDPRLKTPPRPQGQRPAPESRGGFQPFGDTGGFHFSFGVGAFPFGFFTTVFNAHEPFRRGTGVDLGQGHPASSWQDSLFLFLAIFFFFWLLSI
UniProt Q96BY7: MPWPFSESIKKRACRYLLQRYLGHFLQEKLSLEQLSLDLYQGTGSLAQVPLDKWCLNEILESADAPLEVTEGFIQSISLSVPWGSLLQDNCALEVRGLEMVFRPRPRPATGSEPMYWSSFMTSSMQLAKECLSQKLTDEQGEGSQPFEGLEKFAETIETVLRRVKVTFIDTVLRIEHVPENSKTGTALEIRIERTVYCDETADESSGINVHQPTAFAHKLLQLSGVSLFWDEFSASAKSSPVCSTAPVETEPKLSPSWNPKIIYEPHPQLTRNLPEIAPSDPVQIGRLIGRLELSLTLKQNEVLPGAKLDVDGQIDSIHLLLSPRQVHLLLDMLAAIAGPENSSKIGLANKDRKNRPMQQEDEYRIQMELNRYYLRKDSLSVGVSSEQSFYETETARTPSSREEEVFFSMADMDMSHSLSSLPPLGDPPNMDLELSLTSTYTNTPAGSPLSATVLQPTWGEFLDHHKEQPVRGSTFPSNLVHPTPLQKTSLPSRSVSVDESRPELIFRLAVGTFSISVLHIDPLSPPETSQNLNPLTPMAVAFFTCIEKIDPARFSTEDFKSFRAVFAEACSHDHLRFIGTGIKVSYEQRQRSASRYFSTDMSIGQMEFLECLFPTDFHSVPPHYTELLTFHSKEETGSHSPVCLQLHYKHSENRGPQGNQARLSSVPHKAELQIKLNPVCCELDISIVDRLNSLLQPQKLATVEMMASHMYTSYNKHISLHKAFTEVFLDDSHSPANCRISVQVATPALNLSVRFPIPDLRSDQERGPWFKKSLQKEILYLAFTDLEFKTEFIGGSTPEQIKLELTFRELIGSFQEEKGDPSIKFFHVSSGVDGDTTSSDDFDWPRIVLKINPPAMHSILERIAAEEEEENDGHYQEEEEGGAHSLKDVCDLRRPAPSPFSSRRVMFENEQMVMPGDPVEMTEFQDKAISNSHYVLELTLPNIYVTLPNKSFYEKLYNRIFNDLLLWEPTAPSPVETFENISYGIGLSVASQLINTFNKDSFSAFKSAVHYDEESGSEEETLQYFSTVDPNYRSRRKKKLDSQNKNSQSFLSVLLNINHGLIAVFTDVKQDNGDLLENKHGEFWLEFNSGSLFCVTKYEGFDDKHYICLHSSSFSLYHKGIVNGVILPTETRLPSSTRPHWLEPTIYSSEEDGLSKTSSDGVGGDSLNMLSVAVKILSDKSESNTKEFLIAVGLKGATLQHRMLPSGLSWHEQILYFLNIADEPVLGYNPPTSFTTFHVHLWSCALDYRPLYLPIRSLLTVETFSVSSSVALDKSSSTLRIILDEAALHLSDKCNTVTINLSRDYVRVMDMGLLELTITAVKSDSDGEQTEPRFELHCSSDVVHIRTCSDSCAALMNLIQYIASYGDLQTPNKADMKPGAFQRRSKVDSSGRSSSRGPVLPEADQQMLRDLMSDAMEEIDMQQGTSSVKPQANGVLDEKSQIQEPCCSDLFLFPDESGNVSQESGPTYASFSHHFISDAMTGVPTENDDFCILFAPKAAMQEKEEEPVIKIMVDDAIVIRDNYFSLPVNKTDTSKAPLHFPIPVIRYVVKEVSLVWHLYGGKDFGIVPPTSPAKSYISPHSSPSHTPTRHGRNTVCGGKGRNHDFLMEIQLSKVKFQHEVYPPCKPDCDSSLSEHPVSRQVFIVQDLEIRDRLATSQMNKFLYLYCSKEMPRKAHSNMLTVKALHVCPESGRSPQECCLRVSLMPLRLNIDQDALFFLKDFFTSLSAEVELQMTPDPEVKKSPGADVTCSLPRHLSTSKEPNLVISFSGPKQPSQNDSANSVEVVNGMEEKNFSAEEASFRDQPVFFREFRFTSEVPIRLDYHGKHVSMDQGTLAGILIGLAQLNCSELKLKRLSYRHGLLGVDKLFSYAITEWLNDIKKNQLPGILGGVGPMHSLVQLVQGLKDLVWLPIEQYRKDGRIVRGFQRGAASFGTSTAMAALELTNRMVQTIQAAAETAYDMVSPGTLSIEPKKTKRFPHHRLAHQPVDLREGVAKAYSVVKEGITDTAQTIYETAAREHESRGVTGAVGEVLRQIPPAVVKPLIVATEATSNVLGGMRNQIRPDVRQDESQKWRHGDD

What was measured:
GST-tagged RNF5 = GST-tagged RNF5 (UniProt Q99942); test: pull-down; 'in vitro binding assay' with GST-tagged RNF5 and its truncations; no further conditions told
[1] = biological target: ATG2B (human (in human gastric cancer cell lines)) (UniProt Q96BY7); test: co-IP; gastric cancer cells; 'mutual' immunoprecipitation with western blotting; also done after circDHX8 upregulation and after nicotinamide (NAM) treatment, each of which lessened the interaction

| Substance | binding (GST-tagged RNF5) | binding [1] |
| --- | --- | --- |
| ATG2B (in vitro binding assay) (from UniProt Q96BY7 1-2078) | binds | – |
| E3 ubiquitin-protein ligase RNF5 (from UniProt Q99942 1-180) (enzyme) | – | binds |
